# According to PMC4226561:
# Results are given in words; binding and its absence hold for the method and conditions named. Some entries that bind do so weakly or less than the wild type. Where a sequence is shown, tags or fusion partners need not be part of it.
# T1: CESA1 (cellulose synthase, primary cell wall), MbYTH fusion (Arabidopsis thaliana) (UniProt O48946)
# T1 sequence: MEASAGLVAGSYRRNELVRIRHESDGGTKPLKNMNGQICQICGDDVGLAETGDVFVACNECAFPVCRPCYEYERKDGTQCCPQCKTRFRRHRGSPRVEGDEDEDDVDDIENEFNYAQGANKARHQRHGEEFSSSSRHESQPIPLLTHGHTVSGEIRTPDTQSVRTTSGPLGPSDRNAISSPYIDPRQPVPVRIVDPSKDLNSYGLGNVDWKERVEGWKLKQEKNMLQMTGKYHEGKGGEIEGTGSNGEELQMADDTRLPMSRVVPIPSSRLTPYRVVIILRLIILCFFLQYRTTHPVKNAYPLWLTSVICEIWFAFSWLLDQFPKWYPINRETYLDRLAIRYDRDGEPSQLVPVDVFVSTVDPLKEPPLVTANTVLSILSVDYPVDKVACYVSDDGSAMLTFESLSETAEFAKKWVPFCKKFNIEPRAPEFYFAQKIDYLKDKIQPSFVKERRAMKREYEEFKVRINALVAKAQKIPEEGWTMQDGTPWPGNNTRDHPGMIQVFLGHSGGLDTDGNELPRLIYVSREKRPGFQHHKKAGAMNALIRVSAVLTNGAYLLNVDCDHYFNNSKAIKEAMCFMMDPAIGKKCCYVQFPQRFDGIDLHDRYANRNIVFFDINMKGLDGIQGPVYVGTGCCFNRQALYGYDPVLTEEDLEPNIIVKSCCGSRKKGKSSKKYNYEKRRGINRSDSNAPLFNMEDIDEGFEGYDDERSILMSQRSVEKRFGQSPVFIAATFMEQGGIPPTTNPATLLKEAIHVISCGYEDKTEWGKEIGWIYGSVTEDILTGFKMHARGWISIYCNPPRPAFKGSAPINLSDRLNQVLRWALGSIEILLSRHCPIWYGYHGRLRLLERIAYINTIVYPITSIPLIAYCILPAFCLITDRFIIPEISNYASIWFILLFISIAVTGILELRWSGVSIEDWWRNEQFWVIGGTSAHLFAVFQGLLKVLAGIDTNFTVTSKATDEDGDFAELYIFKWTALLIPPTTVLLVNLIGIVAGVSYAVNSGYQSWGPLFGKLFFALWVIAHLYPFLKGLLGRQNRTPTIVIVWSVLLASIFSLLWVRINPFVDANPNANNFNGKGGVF
# T2: KOR1N, N-terminal part of KOR1 with the transmembrane domain (AA 1 to 94), MbYTH fusion (Arabidopsis thaliana) (UniProt Q38890)
# T2 sequence: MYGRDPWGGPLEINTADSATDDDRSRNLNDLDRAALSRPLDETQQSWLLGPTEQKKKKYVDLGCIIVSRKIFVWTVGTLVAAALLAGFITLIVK
# T3: CESA3 (cellulose synthase, primary cell wall), MbYTH fusion (Arabidopsis thaliana) (UniProt Q941L0)
# T3 sequence: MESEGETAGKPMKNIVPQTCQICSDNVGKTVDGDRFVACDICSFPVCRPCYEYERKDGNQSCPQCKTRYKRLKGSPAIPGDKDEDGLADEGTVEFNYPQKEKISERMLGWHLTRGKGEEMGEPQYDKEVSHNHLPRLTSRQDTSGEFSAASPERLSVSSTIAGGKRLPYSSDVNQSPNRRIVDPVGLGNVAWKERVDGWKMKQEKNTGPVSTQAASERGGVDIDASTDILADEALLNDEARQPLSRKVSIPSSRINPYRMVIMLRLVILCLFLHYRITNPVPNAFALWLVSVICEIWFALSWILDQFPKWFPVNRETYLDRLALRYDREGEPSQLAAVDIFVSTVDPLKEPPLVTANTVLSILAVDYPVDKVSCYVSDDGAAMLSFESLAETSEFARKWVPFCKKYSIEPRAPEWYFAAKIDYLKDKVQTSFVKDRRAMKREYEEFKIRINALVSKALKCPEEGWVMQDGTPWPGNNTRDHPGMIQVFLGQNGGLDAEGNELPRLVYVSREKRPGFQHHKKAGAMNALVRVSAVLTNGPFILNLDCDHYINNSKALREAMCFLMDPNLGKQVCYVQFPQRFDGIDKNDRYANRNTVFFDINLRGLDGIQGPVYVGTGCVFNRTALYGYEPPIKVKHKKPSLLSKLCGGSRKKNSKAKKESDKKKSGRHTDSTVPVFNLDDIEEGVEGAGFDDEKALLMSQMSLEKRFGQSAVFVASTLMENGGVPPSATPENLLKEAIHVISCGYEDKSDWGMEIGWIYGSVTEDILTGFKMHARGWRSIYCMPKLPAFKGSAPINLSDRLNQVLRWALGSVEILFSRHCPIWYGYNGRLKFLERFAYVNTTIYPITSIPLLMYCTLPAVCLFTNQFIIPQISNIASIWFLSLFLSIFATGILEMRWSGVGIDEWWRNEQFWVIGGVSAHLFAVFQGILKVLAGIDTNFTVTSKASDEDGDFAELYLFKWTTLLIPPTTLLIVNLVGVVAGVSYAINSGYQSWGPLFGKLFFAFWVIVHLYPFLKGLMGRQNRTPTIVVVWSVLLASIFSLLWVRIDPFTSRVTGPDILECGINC
# Assays:
# Assay in all cases: two-hybrid; split-ubiquitin membrane-based yeast two-hybrid (MbYTH) in S. cerevisiae NMY51; bait fused to Cub-TF, prey to NubG; 100 colonies of each combination spotted on selective medium with 3-AT, 30°C, three days, grown spots counted; called 'in vitro' by the paper
# [1] = molecular target: T1, CESA1 (cellulose synthase, primary cell wall), MbYTH fusion (Arabidopsis thaliana)
# [2] = molecular target: T2, KOR1N, N-terminal part of KOR1 with the transmembrane domain (AA 1 to 94), MbYTH fusion (Arabidopsis thaliana)
# [3] = molecular target: T3, CESA3 (cellulose synthase, primary cell wall), MbYTH fusion (Arabidopsis thaliana)
binding [1],binding [2],binding [3],Binder
binds,binds,binds,"KIFVWTVGTLVAAALLAGFITLIVK (domain or fragment, UniProt Q38890 70-94) [KOR1TMD, only the transmembrane domain of KOR1 (AA 70 to 94), MbYTH fusion]"
binds,binds,binds,"KOR1N, N-terminal part of KOR1 with the transmembrane domain (AA 1 to 94), MbYTH fusion (domain or fragment, UniProt Q38890 1-94) MYGRDPWGGPLEINTADSATDDDRSRNLNDLDRAALSRPLDETQQSWLLGPTEQKKKKYVDLGCIIVSRKIFVWTVGTLVAAALLAGFITLIVK"
binds,,binds,"KORRIGAN1 (KOR1), complete protein (AA 1 to 621), MbYTH fusion (protein, UniProt Q38890 1-621) MYGRDPWGGPLEINTADSATDDDRSRNLNDLDRAALSRPLDETQQSWLLGPTEQKKKKYVDLGCIIVSRKIFVWTVGTLVAAALLAGFITLIVKTVPRHHPKTPPPDNYTIALHKALKFFNAQKSGKLPKHNNVSWRGNSGLQDGKGETGSFYKDLVGGYYDAGDAIKFNFPMAYAMTMLSWSVIEYSAKYEAAGELTHVKELIKWGTDYFLKTFNSTADSIDDLVSQVGSGNTDDGNTDPNDHYCWMRPEDMDYKRPVTTCNGGCSDLAAEMAAALASASIVFKDNKEYSKKLVHGAKVVYQFGRTRRGRYSAGTAESSKFYNSSMYWDEFIWGGAWMYYATGNVTYLNLITQPTMAKHAGAFWGGPYYGVFSWDNKLAGAQLLLSRLRLFLSPGYPYEEILRTFHNQTSIVMCSYLPIFNKFNRTNGGLIELNHGAPQPLQYSVNAAFLATLYSDYLDAADTPGWYCGPNFYSTSVLRDFARSQIDYILGKNPRKMSYVVGFGTKYPRHVHHRGASIPKNKVKYNCKGGWKWRDSKKPNPNTIEGAMVAGPDKRDGYRDVRMNYNYTEPTLAGNAGLVAALVALSGEEEATGKIDKNTIFSAVPPLFPTPPPPPAPWKP"
no binding,no binding,no binding,"KOR1NOTMD, KOR1 without the transmembrane domain (AA 1 to 69+95 to 621), MbYTH prey (domain or fragment, UniProt Q38890) MYGRDPWGGPLEINTADSATDDDRSRNLNDLDRAALSRPLDETQQSWLLGPTEQKKKKYVDLGCIIVSRTVPRHHPKTPPPDNYTIALHKALKFFNAQKSGKLPKHNNVSWRGNSGLQDGKGETGSFYKDLVGGYYDAGDAIKFNFPMAYAMTMLSWSVIEYSAKYEAAGELTHVKELIKWGTDYFLKTFNSTADSIDDLVSQVGSGNTDDGNTDPNDHYCWMRPEDMDYKRPVTTCNGGCSDLAAEMAAALASASIVFKDNKEYSKKLVHGAKVVYQFGRTRRGRYSAGTAESSKFYNSSMYWDEFIWGGAWMYYATGNVTYLNLITQPTMAKHAGAFWGGPYYGVFSWDNKLAGAQLLLSRLRLFLSPGYPYEEILRTFHNQTSIVMCSYLPIFNKFNRTNGGLIELNHGAPQPLQYSVNAAFLATLYSDYLDAADTPGWYCGPNFYSTSVLRDFARSQIDYILGKNPRKMSYVVGFGTKYPRHVHHRGASIPKNKVKYNCKGGWKWRDSKKPNPNTIEGAMVAGPDKRDGYRDVRMNYNYTEPTLAGNAGLVAALVALSGEEEATGKIDKNTIFSAVPPLFPTPPPPPAPWKP"
binds,,binds,"KOR1C, transmembrane domain plus the C-terminal part of KOR1 (AA 70 to 621), MbYTH fusion (domain or fragment, UniProt Q38890 70-621) KIFVWTVGTLVAAALLAGFITLIVKTVPRHHPKTPPPDNYTIALHKALKFFNAQKSGKLPKHNNVSWRGNSGLQDGKGETGSFYKDLVGGYYDAGDAIKFNFPMAYAMTMLSWSVIEYSAKYEAAGELTHVKELIKWGTDYFLKTFNSTADSIDDLVSQVGSGNTDDGNTDPNDHYCWMRPEDMDYKRPVTTCNGGCSDLAAEMAAALASASIVFKDNKEYSKKLVHGAKVVYQFGRTRRGRYSAGTAESSKFYNSSMYWDEFIWGGAWMYYATGNVTYLNLITQPTMAKHAGAFWGGPYYGVFSWDNKLAGAQLLLSRLRLFLSPGYPYEEILRTFHNQTSIVMCSYLPIFNKFNRTNGGLIELNHGAPQPLQYSVNAAFLATLYSDYLDAADTPGWYCGPNFYSTSVLRDFARSQIDYILGKNPRKMSYVVGFGTKYPRHVHHRGASIPKNKVKYNCKGGWKWRDSKKPNPNTIEGAMVAGPDKRDGYRDVRMNYNYTEPTLAGNAGLVAALVALSGEEEATGKIDKNTIFSAVPPLFPTPPPPPAPWKP"
